These are yes or no findings as the source states them, for the method shown. Binding seen in cells or lysates may run through a third protein. Sequences can lack the tags named with a protein.

Chains of the proteins cited; added tags and fusions are not shown.
UniProt P06224: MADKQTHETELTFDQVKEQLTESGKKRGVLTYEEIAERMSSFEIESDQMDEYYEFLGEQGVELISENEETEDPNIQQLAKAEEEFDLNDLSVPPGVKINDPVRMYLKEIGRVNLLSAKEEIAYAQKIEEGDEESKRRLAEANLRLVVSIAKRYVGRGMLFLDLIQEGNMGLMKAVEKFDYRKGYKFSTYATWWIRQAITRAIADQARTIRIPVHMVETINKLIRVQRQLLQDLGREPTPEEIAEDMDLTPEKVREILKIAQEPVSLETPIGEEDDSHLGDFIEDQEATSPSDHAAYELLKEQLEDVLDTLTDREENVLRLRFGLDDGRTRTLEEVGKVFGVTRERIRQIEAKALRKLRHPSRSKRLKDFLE
UniProt P80244: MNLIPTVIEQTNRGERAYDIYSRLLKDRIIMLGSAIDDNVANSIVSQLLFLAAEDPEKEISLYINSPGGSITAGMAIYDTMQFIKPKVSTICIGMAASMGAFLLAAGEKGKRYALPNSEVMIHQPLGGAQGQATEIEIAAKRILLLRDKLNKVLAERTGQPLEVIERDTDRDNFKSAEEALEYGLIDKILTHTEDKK

For the assay, the target named is T1, SpoIIE-3XFLAG (full length FLAG tagged SpoIIE) (B. subtilis) (UniProt P37475).
T1 sequence: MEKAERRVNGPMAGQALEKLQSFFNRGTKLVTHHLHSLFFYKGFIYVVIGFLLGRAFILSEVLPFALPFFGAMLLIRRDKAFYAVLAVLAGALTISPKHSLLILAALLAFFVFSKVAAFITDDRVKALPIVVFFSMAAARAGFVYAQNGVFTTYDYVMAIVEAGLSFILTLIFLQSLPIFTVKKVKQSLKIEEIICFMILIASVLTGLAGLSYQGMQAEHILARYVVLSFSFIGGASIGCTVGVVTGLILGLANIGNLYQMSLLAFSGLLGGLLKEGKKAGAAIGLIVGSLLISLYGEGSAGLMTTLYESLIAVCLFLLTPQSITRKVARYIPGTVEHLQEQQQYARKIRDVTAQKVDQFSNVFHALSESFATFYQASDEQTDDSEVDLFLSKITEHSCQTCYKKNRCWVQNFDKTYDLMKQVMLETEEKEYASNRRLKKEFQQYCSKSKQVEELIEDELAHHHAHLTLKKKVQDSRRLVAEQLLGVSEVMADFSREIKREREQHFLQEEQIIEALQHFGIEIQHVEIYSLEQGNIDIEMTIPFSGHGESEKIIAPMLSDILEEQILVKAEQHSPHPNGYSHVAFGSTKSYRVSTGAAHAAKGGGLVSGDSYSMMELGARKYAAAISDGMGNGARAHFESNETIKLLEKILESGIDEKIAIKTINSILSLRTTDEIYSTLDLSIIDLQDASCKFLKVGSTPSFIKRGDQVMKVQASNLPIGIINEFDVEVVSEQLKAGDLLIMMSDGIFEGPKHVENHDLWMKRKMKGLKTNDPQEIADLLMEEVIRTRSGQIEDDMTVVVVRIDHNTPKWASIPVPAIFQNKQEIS
The assay is described as follows: co-IP; extracts of sporulating B. subtilis cells (2.5 hours after resuspension), membrane proteins solubilized with 2% digitonin, anti-FLAG M2 magnetic beads 1 hour at 4°C, washes with 0.1% digitonin; Western blot. On the technique in general: Immunoblotting shows a protein as a band on a membrane.

In the case of σ^A (from UniProt P06224 1-371), the binding result is reported as “no binding”.

Turning to ClpP (from UniProt P80244 1-197), the binding entry is “no binding”.

These data come from PMC4945075.
